Assay results as given in patent US20110091889A1, “CENTROSOME-ASSAY” (4SC AG, priority 2008, published 2011).
At least one structure is not confirmed: it was looked up by name or label, or the drawing left a doubt.

Test system: H460 cell
Assay: Mitotic phases of H460 cells, DNA and microtubule staining (FIG. 1)
Assay type: cell-based, human
Settings: H460 cell treated with monastrol compared with untreated

## CCOC(=O)C1=C(C)NC(=S)NC1c1cccc(O)c1 (stereo not shown) [monastrol]
  phenotype of treated cells: typical monoaster phenotype
